According to paper PMC11734925:
Results are given in words; binding and its absence hold for the method and conditions named. In cells and extracts the contact can be indirect. Here binding means that the protein was enriched with, or labelled near, the bait; the list need not be complete. For some of these results: Tags and fused reporters may be left off the sequences shown.

Sequences of proteins named here, by UniProt entry; tags and fusion partners are left off. A change or cut given only in a name is not applied to a line headed by its entry.
UniProt A1ZBF8: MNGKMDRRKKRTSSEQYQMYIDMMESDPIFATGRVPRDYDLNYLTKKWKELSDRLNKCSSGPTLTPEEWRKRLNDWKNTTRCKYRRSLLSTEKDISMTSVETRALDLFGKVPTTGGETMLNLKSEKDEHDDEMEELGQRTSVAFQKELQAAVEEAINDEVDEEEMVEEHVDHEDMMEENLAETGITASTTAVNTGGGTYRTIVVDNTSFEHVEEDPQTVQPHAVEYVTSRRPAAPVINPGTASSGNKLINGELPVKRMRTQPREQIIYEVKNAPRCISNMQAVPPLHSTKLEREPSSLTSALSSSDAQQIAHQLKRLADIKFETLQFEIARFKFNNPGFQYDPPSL

Tests used:
[1] = target: GFP-Prod (D. melanogaster) (UniProt A1ZBF8); assay: affinity purification with mass spectrometry; GFP-D1 or GFP-Prod captured on anti-GFP nanobody magnetic beads from lysate of nuclei isolated from embryos (450 mM NaCl, 1% Triton-X, benzonase), 90 min at 4°C; washes with 450 mM NaCl; hits against the NLS-GFP control pulldown
GFP-D1 (D. melanogaster) [2] = target: T1, GFP-D1 (D. melanogaster) (UniProt P22058); assay: as above
T1 sequence: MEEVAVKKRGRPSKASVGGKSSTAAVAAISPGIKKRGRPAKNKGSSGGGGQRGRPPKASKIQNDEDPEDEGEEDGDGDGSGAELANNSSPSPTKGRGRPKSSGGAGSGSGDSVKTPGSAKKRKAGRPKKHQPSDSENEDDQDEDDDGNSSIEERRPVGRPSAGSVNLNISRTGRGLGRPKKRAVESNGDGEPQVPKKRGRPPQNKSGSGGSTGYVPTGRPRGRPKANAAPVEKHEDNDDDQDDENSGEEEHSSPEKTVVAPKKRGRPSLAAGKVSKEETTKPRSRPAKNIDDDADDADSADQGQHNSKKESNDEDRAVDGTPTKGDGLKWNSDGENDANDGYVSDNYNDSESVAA

[3] = target: GFP-Prod (D. melanogaster) (UniProt A1ZBF8); assay: affinity purification with mass spectrometry; GFP-D1 or GFP-Prod captured on anti-GFP nanobody magnetic beads from ovary lysate (450 mM NaCl, 0.2% NP40, benzonase), 90 min at 4°C; washes with 450 mM NaCl; hits against the NLS-GFP control pulldown
GFP-D1 (D. melanogaster) [4] = target: T1, GFP-D1 (D. melanogaster); assay: as above

Measured: binding

B1: CG5504 (protein, UniProt Q27237 63-520)
chain: AKDYYATLGVAKNANGKDIKKAYYQLAKKYHPDTNKEDPDAGRKFQEVSEAYEVLSDEQKRREYDTYGQTAENIGRQGGGFPGGGAGGFGPEGFSQSWQFRSSIDPEELFRKIFGEGNFRTNSFDDFADSKFGFGQAQEMVMDLTFAQAARGVNKDVNVNVVDQCPKCAGTKCEPGTKPGRCQYCNGTGFETVSTGPFVMRSTCRYCQGTRQHIKYPCSECEGKGRTVQRRKVTVPVPAGIENGQTVRMQVGSKELFVTFRVERSDYFRREGADVHTDAAISLAQAVLGGTVRVQGVYEDQWINVEPGTSSHHKIMLRGKGLKRVNAHGHGDHYVHVKITVPSAKKLDKKRLALIEAYAELEEDTPGQIHGIANRKDGSKQATAGASEEPGAGAAAKASAAAAGSGASKPGPGAEKSEGKDQWTDNEKTKAKEGGGSGSGQGDGGGGGFISKIKSMFN
binds: [1] | GFP-D1 (D. melanogaster) [2] | [3] | GFP-D1 (D. melanogaster) [4]
